Measured values taken from the supplement of paper PMC3682954.
Counter-ions that a name gives are not always drawn. ± gives the standard deviation of the averaged measurements. The list shows a part of the results. Repeats are few or missing, and single values can be far off.

Test system: RAW 264.7
Experiment: cell viability (MTT) relative to vehicle control; higher = more viable cells
Settings: stimulus: HMGB1 5 ug/ml, 18 h
[1] = compound concentration: 1 ug/ml

| Structure (SMILES) | cell viability (compound concentration: 3 uM) | cell viability [1] |
| --- | --- | --- |
| Oc1c(Br)cc(Br)c2cccnc12 | 98.2% | – |
| Nc1nc(F)nc2c1ncn2[C@@H]1O[C@H](COP(=O)(O)O)[C@@H](O)[C@@H]1O | 119 ± 17% | – |
| CCOC(=O)N1CCC(=C2c3ccc(Cl)cc3CCc3cccnc32)CC1 [Loratadine] | 96.8 ± 3.2% | – |
| CCOC(=O)N1CCC(=C2c3ccc(Cl)cc3CCc3cccnc32)CC1 | 97.53 ± 0.67% | – |
| NC(=O)c1ccccc1O | 100% | – |
| CCCCN1CCC(n2c(=O)[nH]c3ccccc32)CC1 [NS 521 oxalate] | 106% | – |
| C[C@]12CCC(=O)C=C1CC[C@@H]1[C@@H]2C(=O)C[C@@]2(C)[C@H]1CC[C@]2(O)C(=O)CO | 106 ± 4.8% | – |
| C[C@]12CCC(=O)C=C1CC[C@@H]1[C@@H]2C(=O)C[C@@]2(C)[C@H]1CC[C@]2(O)C(=O)CO [Cortisone] | 98.5 ± 1.3% | – |
| COC(=O)[C@H](c1ccccc1Cl)N1CCc2sccc2C1 [Clopidogrel] | 102% | – |
| COC(=O)[C@H](c1ccccc1Cl)N1CCc2sccc2C1 | 97.2% | – |
| COCCCC/C(=N\OCCN)c1ccc(C(F)(F)F)cc1 [Fluvoxamine] | 98.4% | – |
| COCCCC/C(=N\OCCN)c1ccc(C(F)(F)F)cc1 [Fluvoxamine maleate] | 98.6 ± 1.6% | – |
| O=C1/C(=C/c2cccs2)CC/C1=C\c1cccs1 | 114% | – |
| COc1cc2nc(N3CCN(C(=O)OCc4ccccc4)[C@H](C(=O)NC(C)(C)C)C3)nc(N)c2cc1OC | 119% | – |
| CN(C)[C@@H]1C(O)=C(C(N)=O)C(=O)[C@@]2(O)C(O)=C3C(=O)c4c(O)cccc4[C@@](C)(O)[C@H]3C[C@@H]12 [Tetracycline] | 94.7% | – |
| CN(C)[C@@H]1C(O)=C(C(N)=O)C(=O)[C@@]2(O)C(O)=C3C(=O)c4c(O)cccc4[C@@](C)(O)[C@H]3C[C@@H]12 | 103% | – |
| CN(C)[C@@H]1C(O)=C(C(N)=O)C(=O)[C@@]2(O)C(O)=C3C(=O)c4c(O)cccc4[C@@](C)(O)[C@H]3C[C@@H]12 [Tetracycline hydrochloride] | 87.9% | 89.9% |
| O=C(O)C1CCCNC1 (racemic) [(±)-Nipecotic acid] | 103% | – |
| C[C@H](N[C@@H](CCc1ccccc1)C(=O)O)C(=O)N1CCC[C@H]1C(=O)O [Enalaprilat] | 115% | – |
| C[C@H](N[C@@H](CCc1ccccc1)C(=O)O)C(=O)N1CCC[C@H]1C(=O)O [Enalaprilat dihydrate] | 101% | – |
| C[C@H](N[C@@H](CCc1ccccc1)C(=O)O)C(=O)N1CCC[C@H]1C(=O)O | 95.3% | – |

Part of the list above, with tabs.
Structure (SMILES)	cell viability (compound concentration: 3 uM)	cell viability [1]
O=C1/C(=C/c2cccs2)CC/C1=C\c1cccs1	114%	–
COc1cc2nc(N3CCN(C(=O)OCc4ccccc4)[C@H](C(=O)NC(C)(C)C)C3)nc(N)c2cc1OC	119%	–
CN(C)[C@@H]1C(O)=C(C(N)=O)C(=O)[C@@]2(O)C(O)=C3C(=O)c4c(O)cccc4[C@@](C)(O)[C@H]3C[C@@H]12 [Tetracycline]	94.7%	–
CN(C)[C@@H]1C(O)=C(C(N)=O)C(=O)[C@@]2(O)C(O)=C3C(=O)c4c(O)cccc4[C@@](C)(O)[C@H]3C[C@@H]12	103%	–
CN(C)[C@@H]1C(O)=C(C(N)=O)C(=O)[C@@]2(O)C(O)=C3C(=O)c4c(O)cccc4[C@@](C)(O)[C@H]3C[C@@H]12 [Tetracycline hydrochloride]	87.9%	89.9%

(list continues)

| Structure (SMILES) | cell viability (compound concentration: 3 uM) | cell viability [1] |
| --- | --- | --- |
| CCN(CC)CCNC(=O)c1ccc(NS(C)(=O)=O)cc1 [Sematilide monohydrochloride monohydrate] | 101% | – |
| CC[C@H](C)[C@H](NC(=O)OCC1c2ccccc2-c2ccccc21)C(=O)O [FMOC-L-Isoleucine] | – | 105% |
| O=C1N[C@H](C(=O)O)CS1 [4-Thiazolidinecarboxylic acid, 2-oxo-, (R)- [CAS]] | 93.2% | – |
| CC(=O)OCC(=O)[C@@]1(O)[C@@H](C)C[C@H]2[C@@H]3CCC4=CC(=O)C=C[C@]4(C)[C@@]3(F)[C@@H](O)C[C@@]21C | 129% | – |
| CC[C@H](/C=C/[C@@H](C)[C@H]1CC[C@H]2[C@@H]3CC=C4C[C@@H](O)CC[C@]4(C)[C@H]3CC[C@]12C)C(C)C [Stigmasterol] | – | 103% |
| O=C(O)c1cn(-c2ccc(F)cc2)c2cc(N3CCNCC3)c(F)cc2c1=O | 106% | – |
| O=C(O)c1cn(-c2ccc(F)cc2)c2cc(N3CCNCC3)c(F)cc2c1=O [Sarafloxacin] | 98.6 ± 6.9% | – |
| O=C(O)Cc1ccc(-c2ccccc2)cc1 [Felbinac] | 101% | – |
| C[C@@H]1C[C@H]2[C@@H]3C[C@H](F)C4=CC(=O)C=C[C@]4(C)[C@@]3(F)[C@@H](O)C[C@]2(C)[C@@]1(O)C(=O)CO | 109% | – |
| C[C@@H]1C[C@H]2[C@@H]3C[C@H](F)C4=CC(=O)C=C[C@]4(C)[C@@]3(F)[C@@H](O)C[C@]2(C)[C@@]1(O)C(=O)CO [Flumethasone] | 133% | – |
| N#Cc1ccc(C(c2ccc(C#N)cc2)n2cncn2)cc1 | 96.1% | – |
| N#Cc1ccc(C(c2ccc(C#N)cc2)n2cncn2)cc1 [Letrozole] | 101 ± 7.1% | – |
| Clc1ccc(CCC(Cn2ccnc2)Sc2c(Cl)cccc2Cl)cc1 (centres undefined) [Butoconazole nitrate] | 141% | – |
| C[N+]1(C)CCC(OC(=O)C(O)(c2ccccc2)C2CCCC2)C1 (centres undefined) | 98.2 ± 5.7% | – |
| C[N+]1(C)CCC(OC(=O)C(O)(c2ccccc2)C2CCCC2)C1 (centres undefined) [Glycopyrrolate] | 130% | – |
| Oc1ccc2ccccc2c1 [beta-NAPHTHOL] | 115% | – |
| CN1CCN(C2=Nc3ccccc3Oc3ccc(Cl)cc32)CC1 | 95.82 ± 0.62% | – |
| CN1CCN(C2=Nc3ccccc3Oc3ccc(Cl)cc32)CC1 [Loxapine succinate] | 96.1 ± 1.7% | – |
| NCc1ccccc1CC(=O)N[C@@H]1C(=O)N2C(C(=O)O)=C(CSc3nnnn3CC(=O)O)CS[C@H]12 [Ceforanide] | 117% | – |
| N=C(NCCCCCCNC(=N)NC(=N)Nc1ccc(Cl)cc1)NC(=N)Nc1ccc(Cl)cc1 | 71.3 ± 5.1% | – |
| N=C(NCCCCCCNC(=N)NC(=N)Nc1ccc(Cl)cc1)NC(=N)Nc1ccc(Cl)cc1 [Chlorhexidine] | 77.1% | – |

| Structure (SMILES) | cell viability (compound concentration: 3 uM) | cell viability [1] |
| --- | --- | --- |
| COc1c2occc2cc2ccc(=O)oc12 [8-Methoxypsoralen] | – | 95.4% |
| COc1c2occc2cc2ccc(=O)oc12 | 112% | – |
| CC1(C)OC(=O)C(OCC2CC2)=C1c1ccc(S(C)(=O)=O)cc1 | 116% | – |
| CC(N/C(=N\C#N)Nc1ccncc1)C(C)(C)C (centres undefined) | 109% | – |
| CC(N/C(=N\C#N)Nc1ccncc1)C(C)(C)C (centres undefined) [Pinacidil] | 99.5 ± 7.1% | – |
| CC(N/C(=N\C#N)Nc1ccncc1)C(C)(C)C (centres undefined) [Pinacidil monohydrate] | 102% | – |
| Cc1c(-c2ccccc2)oc2cc(O)ccc2c1=O | – | 90.7% |
| O=C1CC(c2ccccc2O)Oc2ccc(O)cc21 (centres undefined) [2',6-Dihydroxyflavanone] | – | 85.1% |
| CCN(CC)CCOC(=O)C1(C2CCCCC2)CCCCC1 [Dicyclomine hydrochloride] | 100 ± 9% | – |
| CCN(CC)CCOC(=O)C1(C2CCCCC2)CCCCC1 | 97.6% | – |
| CNCCc1c2cc(O)ccc2n2oc(=O)c(=O)oc12 [N-Methylserotonin oxalate] | – | 101% |
| CC(=O)Oc1ccccc1C(=O)Nc1ncc([N+](=O)[O-])s1 | 94% | – |
| Cc1[nH]ccc2c1[nH]c1cc(=O)ccc12 [Harmol hydrochloride monohydrate] | 112% | – |
| Cc1[nH]ccc2c1[nH]c1cc(=O)ccc12 [Harmol hydrochloride dihydrate] | – | 91% |
| Oc1cc(O)c2c(c1)O[C@H](c1ccc(O)c(O)c1)[C@@H](O)C2 | 109% | – |
| Oc1cc(O)c2c(c1)O[C@H](c1ccc(O)c(O)c1)[C@@H](O)C2 [(+)-Catechin Hydrate] | 84.4% | – |
| C[N+]1(C)CCC(OC(=O)C(c2ccccc2)c2ccccc2)CC1 [4-DAMP methiodide] | 100% | – |
| CN(C)CCCN1c2ccccc2Sc2ccc(C(F)(F)F)cc21 [Triflupromazine hydrochloride] | 103 ± 3.3% | – |
| CN(C)CCCN1c2ccccc2Sc2ccc(C(F)(F)F)cc21 | 102% | – |
| COc1ccc([C@@H]2CC(=O)c3c(O)cc(O)cc3O2)cc1O [Hesperetin] | – | 94.4% |
| CC[N+](C)(CC)CCOC(=O)C(O)(c1ccccc1)C1CCCCC1 (centres undefined) | 96.5 ± 5.3% | – |

| Structure (SMILES) | cell viability (compound concentration: 3 uM) | cell viability [1] |
| --- | --- | --- |
| N=C(NC(=O)c1nc(Cl)c(N)nc1N)Nc1ccccc1 [Phenamil] | 108% | – |
| N=C(NC(=O)c1nc(Cl)c(N)nc1N)Nc1ccccc1 [Phenamil methanesulfonate] | 100% | – |
| COc1cc(C(=O)OCCCN2CCCN(CCCOC(=O)c3cc(OC)c(OC)c(OC)c3)CC2)cc(OC)c1OC [Dilazep hydrochloride] | 101% | – |
| COc1cc(C(=O)OCCCN2CCCN(CCCOC(=O)c3cc(OC)c(OC)c(OC)c3)CC2)cc(OC)c1OC [Dilazep dihydrochloride] | 122% | – |
| COc1cc(C(=O)OCCCN2CCCN(CCCOC(=O)c3cc(OC)c(OC)c(OC)c3)CC2)cc(OC)c1OC [Dilazep] | 98.9% | – |
| COc1ccc2c(c1)CCC1C2CCC2(C)C(NCCCCCCN3C(=O)C=CC3=O)CCC12 (centres undefined) | 106% | – |
| C[Si](C)(C)c1cn([C@H]2C[C@H](O)[C@@H](CO)O2)c(=O)[nH]c1=O [Xylure] | – | 85.7% |
| O=S(=O)(O)c1cc(N=C=S)ccc1/C=C/c1ccc(N=C=S)cc1S(=O)(=O)O | 142% | – |
| C#CC(N)CCC(=O)O (centres undefined) [gamma-Acetylinic GABA] | 97.3% | – |
| O=C1c2c(O)cccc2Cc2cccc(O)c21 | 104% | – |
| O=C1c2c(O)cccc2Cc2cccc(O)c21 [Anthralin] | 127% | – |
| C/C=C/C(=O)OCC1OC(Oc2cc(O)c3c(=O)cc(-c4ccc(O)c(OC)c4)oc3c2)C(O)C(O)C1O (centres undefined) [Thermopsoside, crotonoyl] | – | 99.1% |
| CC[N+](C)(C)c1cccc(O)c1 | 105% | – |
| CC[N+](C)(C)c1cccc(O)c1 [Edrophonium chloride] | 103 ± 3.2% | – |
| CO[C@@H]1[C@@H](O[C@@H]2O[C@H](C)[C@@H](O[C@H]3C[C@@](C)(O)[C@@H](OC(=O)CC(C)C)[C@H](C)O3)[C@H](N(C)C)[C@H]2O)[C@@H](CC=O)C[C@@H](C)[C@@H](O)/C=C/C=C/C[C@@H](C)OC(=O)C[C@H]1O | 102% | – |
| CC(=O)[C@@]1(O)CC[C@H]2[C@@H]3C=C(Cl)C4=CC(=O)[C@@H]5C[C@@H]5[C@]4(C)[C@H]3CC[C@@]21C | 109% | – |
| Cc1cn([C@H]2C[C@H](O)[C@@H](C)O2)c(=O)[nH]c1=O [5'-Deoxythymidine] | – | 107% |
| Nc1[nH]cnc2ncnc1-2 | 102% | – |
| OC(Cn1cncn1)(Cn1cncn1)c1ccc(F)cc1F [Fluconazole] | 104 ± 10% | – |
| OC(Cn1cncn1)(Cn1cncn1)c1ccc(F)cc1F | 109% | – |
